# The list shows only some results of the screen, not a fair sample: it gathers some chemical classes. Not every dose and run of a compound is shown. T/C: endpoint of the treated group in % of that of the vehicle group. Where survival is the endpoint, this PubChem deposit counts one and a half times the control or more as active, and values a quarter to a half above the control carry no call in these data; other NCI protocols may use other cut-offs. Some entries show no survivor count and are marked so; the dose need not have been tolerated. Schedule codes are those of the source, taken here to give the interval after Q, in days (D) or hours (H), and the number of doses after X. Some entries hold several experiments; the values are given in rising order.
# Tested on: Gardner 6C3HED lymphosarcoma ip, C3AKF1 mice, survival T/C
# Assay: NCI In Vivo Anticancer Drug Screen. Data for tumor model Lymphosarcoma Gardner 6C3HED (intraperitoneal) in C3AKF1 (CHKRF1) mice
# Settings: T/C endpoint: survival time, mean or median, schedule: Q01DX010 (ip), vehicle: saline, higher T/C = longer survival
# Procedure: The antitumor activity of compounds was measured in mice bearing transplantable tumors. Survival or tumor size were measured and the results are expressed as the measurement made in the treated group (T) divided by the measurement made in the vehicle treated control group (C). The tumor model used in this assay is Lymphosarcoma Gardner 6C3HED (intraperitoneal) in C3AKF1 (CHKRF1) mice
structure (smiles),measurement,setting,value
CC(C(=O)O)N(CCCl)CCCl (stereo unspecified),T/C,dose: 0.25 mg/kg/injection,116 % of control [survivor count not shown]
same,T/C,dose: 0.5 mg/kg/injection,108 [survivor count not shown] and 145 % of control [survivor count not shown]
same,T/C,dose: 1.0 mg/kg/injection,125 [survivor count not shown] and 136 % of control [survivor count not shown]
same,T/C,dose: 2.0 mg/kg/injection,112 [survivor count not shown] and 159 % of control [survivor count not shown]
same,T/C,dose: 4.0 mg/kg/injection,86 % of control [survivor count not shown]
NC1CCCCC1.NP(=O)(O)N(CCCl)CCCl,T/C,dose: 15.6 mg/kg/injection,141 [survivor count not shown] and 177 % of control [survivor count not shown]
same,T/C,dose: 21.3 mg/kg/injection,191 % of control [survivor count not shown]
same,T/C,dose: 31.3 mg/kg/injection,209 % of control [survivor count not shown]
same,T/C,dose: 62.5 mg/kg/injection,108 [survivor count not shown] and 209 % of control [survivor count not shown]
ClCCNCCCl,T/C,dose: 18.8 mg/kg/injection,"91 [survivor count not shown], 96 [survivor count not shown], 109 % of control [survivor count not shown]"
same,T/C,dose: 37.5 mg/kg/injection,"107 [survivor count not shown], 112 [survivor count not shown], 114 % of control [survivor count not shown]"
same,T/C,dose: 75.0 mg/kg/injection,"120 [survivor count not shown], 121 [survivor count not shown], 147 % of control [survivor count not shown]"
O=C(O)CN(CCCl)CCCl,T/C,dose: 0.62 mg/kg/injection,100 % of control [survivor count not shown]
same,T/C,dose: 0.63 mg/kg/injection,116 % of control [survivor count not shown]
same,T/C,dose: 1.25 mg/kg/injection,120 [survivor count not shown] and 122 % of control [survivor count not shown]
same,T/C,dose: 2.5 mg/kg/injection,125 [survivor count not shown] and 136 % of control [survivor count not shown]
same,T/C,dose: 5.0 mg/kg/injection,90 % of control [survivor count not shown]
ClCCN(CCCl)Cc1nc2ccccc2[nH]1,T/C,dose: 1.25 mg/kg/injection,116 % of control [survivor count not shown]
same,T/C,dose: 2.5 mg/kg/injection,158 % of control [survivor count not shown]
same,T/C,dose: 5.0 mg/kg/injection,183 % of control [survivor count not shown]
same,T/C,dose: 10.0 mg/kg/injection,170 % of control [survivor count not shown]

# Source: PubChem BioAssay AID232 (DTP/NCI, 2004)
